Test results as given in the supplement of paper PMC8728848.
The list shows a part of the results.

Assays:
Test in all cases: glycan array binding signal (z-score within array); higher = stronger binding
Details in all cases: glycan notation: IUPAC condensed, linker removed
[1] = target: Man(a1-2)Man(a1-3)[Man(a1-2)Man(a1-6)]Man(a1-6)[Man(a1-2)Man(a1-2)Man(a1-3)]Man(b1-4)GlcNAc(b1-4)GlcNAc
Summary of the method: (§1)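 The Consortium for Functional Glycomics database supplied 3228 glycan arrays, of which those lacking an available protein sequence were dropped. The binding signal, a within-array Z-score, was averaged across arrays of the same protein sequence and across linkers. Negative scores can be read as non-binding.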

[2] = target: Man(a1-2)Man(a1-3)[Man(a1-6)]Man(a1-6)[Man(a1-2)Man(a1-3)]Man(b1-4)GlcNAc(b1-4)GlcNAc
Summary of the method: as §1

[3] = target: Man(a1-2)Man(a1-6)[Man(a1-3)]Man(a1-6)[Man(a1-2)Man(a1-2)Man(a1-3)]Man
Summary of the method: as §1

[4] = target: Man(a1-2)Man(a1-6)[Man(a1-3)]Man(a1-6)[Man(a1-2)Man(a1-2)Man(a1-3)]Man(b1-4)GlcNAc(b1-4)GlcNAc
Summary of the method: as §1

Man(a1-3)[Man(a1-6)]Man = target: Man(a1-3)[Man(a1-6)]Man
Summary of the method: as §1

[5] = target: Man(a1-3)[Man(a1-6)]Man(a1-6)[Man(a1-2)Man(a1-3)]Man(b1-4)GlcNAc(b1-4)GlcNAc
Summary of the method: as §1

[6] = target: Man(a1-3)[Man(a1-6)]Man(a1-6)[Man(a1-3)]Man
Summary of the method: as §1

[7] = target: Man(a1-3)[Man(a1-6)]Man(a1-6)[Man(a1-3)]Man(b1-4)GlcNAc(b1-4)GlcNAc
Summary of the method: as §1

[8] = target: Man(a1-3)[Man(a1-6)]Man(b1-4)GlcNAc(b1-4)GlcNAc
Summary of the method: as §1

[9] = target: Man(a1-3)[Man(a1-6)]Man(b1-4)GlcNAc(b1-4)[Fuc(a1-6)]GlcNAc
Summary of the method: as §1

Man(a1-6)Man = target: Man(a1-6)Man
Summary of the method: as §1

Man(b1-4)GlcNAc = target: Man(b1-4)GlcNAc
Summary of the method: as §1

MurNAc(b1-4)GlcNAc = target: MurNAc(b1-4)GlcNAc
Summary of the method: as §1

Neu5Ac(a2-3)Gal = target: Neu5Ac(a2-3)Gal
Summary of the method: as §1

[10] = target: Neu5Ac(a2-3)Gal(b1-3)GalNAc
Summary of the method: as §1

[11] = target: Neu5Ac(a2-3)Gal(b1-3)GalNAc(b1-3)Gal(a1-4)Gal(b1-4)Glc
Summary of the method: as §1

[12] = target: Neu5Ac(a2-3)Gal(b1-3)GalNAc(b1-4)[Neu5Ac(a2-3)]Gal(b1-4)Glc
Summary of the method: as §1

[13] = target: Neu5Ac(a2-3)Gal(b1-3)GalNAc(b1-4)[Neu5Ac(a2-8)Neu5Ac(a2-3)]Gal(b1-4)Glc
Summary of the method: as §1

[14] = target: Neu5Ac(a2-3)Gal(b1-3)GalNAc6S
Summary of the method: as §1

[15] = target: Neu5Ac(a2-3)Gal(b1-3)GlcNAc
Summary of the method: as §1

[16] = target: Neu5Ac(a2-3)Gal(b1-3)GlcNAc(b1-2)Man
Summary of the method: as §1

[17] = target: Neu5Ac(a2-3)Gal(b1-3)GlcNAc(b1-2)Man(a1-3)[GlcNAc(b1-4)][Neu5Ac(a2-3)Gal(b1-3)GlcNAc(b1-2)Man(a1-6)]Man(b1-4)GlcNAc(b1-4)GlcNAc
Summary of the method: as §1

[18] = target: Neu5Ac(a2-3)Gal(b1-3)GlcNAc(b1-2)Man(a1-3)[Neu5Ac(a2-3)Gal(b1-3)GlcNAc(b1-2)Man(a1-6)]Man(b1-4)GlcNAc(b1-4)GlcNAc
Summary of the method: as §1

[19] = target: Neu5Ac(a2-3)Gal(b1-3)GlcNAc(b1-3)Gal(b1-3)GlcNAc
Summary of the method: as §1

[20] = target: Neu5Ac(a2-3)Gal(b1-3)GlcNAc(b1-3)Gal(b1-4)GlcNAc
Summary of the method: as §1

[21] = target: Neu5Ac(a2-3)Gal(b1-3)GlcNAc(b1-3)GalNAc
Summary of the method: as §1

[22] = target: Neu5Ac(a2-3)Gal(b1-3)GlcNAc(b1-4)Gal(b1-4)Glc
Summary of the method: as §1

[23] = target: Neu5Ac(a2-3)Gal(b1-3)GlcNAc(b1-6)GalNAc
Summary of the method: as §1

[24] = target: Neu5Ac(a2-3)Gal(b1-3)GlcNAc6S
Summary of the method: as §1

[25] = target: Neu5Ac(a2-3)Gal(b1-3)[Fuc(a1-4)]GlcNAc
Summary of the method: as §1

B1: Blon2355mut (Bifidobacterium longum) (protein)
chain: MVQEPTLEWHVIPEPTNVEPLVGTCSLPLSGTVVEQRGADDAEAVFARQLVDDIKRVCGGRWQVASGEVQREVTLRTSPSLDDWSYVLEVSPDGVVITGSGFEGVRDGVQTLRQIIRQIGLTIPCMVIRDRPAFSTRGYYLDVTRGRVPSMAWLKSWVDRLCFYKYNQFQLYIEHTFQFNGLSEVWRGADPLTSSDILELDSYCAARGIELVPSVSTFGHHYTALRTRQLRDLGEFPEDADRPFSLIERMTHHTLNITDERSYEFSTSLIDELMPLFRSRKFNICANETFDLGKGRSKQESAKRGVGAMYADFVERLCRHVDDRGHDVMVWADVALEHPEIIDTLPKNITWLNWQYEPNVDDGTTAALADAGATQMVCPAVWCWNALIPRIDDAWNNITRMARHGRAHDVSGMLVTDWGDFGHVNDPRMSVPGMIFGAQQSWNPDAELSEVDMLSRISTIEYGDHTGSVVGALRGASAKGGFSWSDLVTYLELDDGRGGCNTEIVRVMGCLEAYRNDLPQSGQARLADARVSMLRTLRDSILAGRELNGKLDDAAKDITQLLRVAGDPSSAAVWSLAIDGQRLLNRVGLALLAAHGVVRQDEAGIDAAKLADELECWTEQYSRLWHEVSRQSELARIQHVVWRAADVLRSI
[1]
  glycan array binding signal (z-score): -0.539
[2]
  glycan array binding signal (z-score): -0.875
[3]
  glycan array binding signal (z-score): -1.64
[4]
  glycan array binding signal (z-score): 0.149
Man(a1-3)[Man(a1-6)]Man
  glycan array binding signal (z-score): -0.703
[5]
  glycan array binding signal (z-score): 0.814
[6]
  glycan array binding signal (z-score): 1.3
[7]
  glycan array binding signal (z-score): -0.833
[8]
  glycan array binding signal (z-score): -0.047
[9]
  glycan array binding signal (z-score): -0.822
Man(a1-6)Man
  glycan array binding signal (z-score): -0.09
Man(b1-4)GlcNAc
  glycan array binding signal (z-score): 0.643
MurNAc(b1-4)GlcNAc
  glycan array binding signal (z-score): -0.276
Neu5Ac(a2-3)Gal
  glycan array binding signal (z-score): -1.03
[10]
  glycan array binding signal (z-score): -0.401
[11]
  glycan array binding signal (z-score): -0.213
[12]
  glycan array binding signal (z-score): 0.121
[13]
  glycan array binding signal (z-score): -0.844
[14]
  glycan array binding signal (z-score): -0.09
[15]
  glycan array binding signal (z-score): -0.842
[16]
  glycan array binding signal (z-score): -0.17
[17]
  glycan array binding signal (z-score): -0.698
[18]
  glycan array binding signal (z-score): -0.203
[19]
  glycan array binding signal (z-score): -0.135
[20]
  glycan array binding signal (z-score): -0.791
[21]
  glycan array binding signal (z-score): -0.741
[22]
  glycan array binding signal (z-score): -1.02
[23]
  glycan array binding signal (z-score): 1.99
[24]
  glycan array binding signal (z-score): 0.608
[25]
  glycan array binding signal (z-score): -0.618
